The target of the assay is T1, nuclear factor kappa-B repressing factor (NKRF) (human (endogenous in MRC-5)) (UniProt O15226).
T1 sequence: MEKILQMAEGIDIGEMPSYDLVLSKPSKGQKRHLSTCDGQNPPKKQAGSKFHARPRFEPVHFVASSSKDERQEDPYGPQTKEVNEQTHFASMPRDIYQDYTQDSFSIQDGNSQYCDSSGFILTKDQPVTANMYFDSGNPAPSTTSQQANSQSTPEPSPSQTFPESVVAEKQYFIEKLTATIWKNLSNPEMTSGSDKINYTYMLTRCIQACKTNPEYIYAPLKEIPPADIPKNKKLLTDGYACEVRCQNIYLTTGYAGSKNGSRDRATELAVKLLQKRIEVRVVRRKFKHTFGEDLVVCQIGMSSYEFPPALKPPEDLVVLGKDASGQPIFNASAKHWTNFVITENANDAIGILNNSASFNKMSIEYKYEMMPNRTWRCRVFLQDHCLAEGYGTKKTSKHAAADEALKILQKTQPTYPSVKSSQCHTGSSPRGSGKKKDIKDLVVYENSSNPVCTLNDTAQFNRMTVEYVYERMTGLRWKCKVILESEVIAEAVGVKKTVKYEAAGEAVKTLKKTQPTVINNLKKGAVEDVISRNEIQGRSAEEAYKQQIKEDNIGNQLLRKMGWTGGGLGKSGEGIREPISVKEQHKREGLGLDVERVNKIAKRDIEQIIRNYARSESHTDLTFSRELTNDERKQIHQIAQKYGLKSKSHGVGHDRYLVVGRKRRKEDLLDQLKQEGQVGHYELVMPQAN
The assay can be described thus: co-IP; MRC-5 cells 48 or 72 h after infection; lysis buffer with 150 mM KCl, 25 mM Tris-HCl pH 7.4, 5 mM EDTA, 0.5% Triton X-100, 5 mM DTT; anti-NKRF antibody overnight at 4°C, beads 2-4 h at room temperature, five washes; analysed by WB; normal IgG as negative control.

No constants are given. Whether binding was seen depends on the method and setting. In cells and extracts the contact can be indirect. A result given as binding can be weak or reduced; the word gives no strength.

“nuclear factor kappa-B (NF-κB) (human (endogenous in MRC-5))”: the binding entry was “binds”.

Values taken from publication PMC12712653.
